# Measurements as given in PMC7819943, “Rice protein-binding microarrays: a tool to detect cis-acting elements near promoter regions in rice”.
# The other results are listed elsewhere or left out.
# Biological target: T1, OsSMF1 (Oryza sativa, UniProt Q6ZLB0 1-436)
# T1 sequence: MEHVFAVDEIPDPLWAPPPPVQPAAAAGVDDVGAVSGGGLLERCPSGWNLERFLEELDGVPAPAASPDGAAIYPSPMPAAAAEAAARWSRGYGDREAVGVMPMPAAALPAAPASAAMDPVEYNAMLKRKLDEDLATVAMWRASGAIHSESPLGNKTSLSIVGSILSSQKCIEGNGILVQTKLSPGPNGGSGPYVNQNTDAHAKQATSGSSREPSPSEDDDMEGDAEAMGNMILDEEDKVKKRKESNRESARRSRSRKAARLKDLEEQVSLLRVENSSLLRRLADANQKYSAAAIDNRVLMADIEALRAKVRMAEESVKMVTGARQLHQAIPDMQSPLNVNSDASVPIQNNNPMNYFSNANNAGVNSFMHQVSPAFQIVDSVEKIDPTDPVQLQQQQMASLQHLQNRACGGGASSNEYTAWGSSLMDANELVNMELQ
# Assay: protein-binding microarray (RPBM); PBS, 2% BSA, 51.3 ng/ul salmon testes DNA, 50 uM zinc acetate, 200 nM TF, 25 C, 1 h; high values mean tight binding
# Details: protein: recombinant; tags: N-terminal polyhistidine and DsRed monomer fusion (pET32a); chain copies: 2; label: CyDye5-dUTP incorporated in the synthesized complementary strand; 3' TTTTT single-stranded linker to array surface; dsDNA, one strand shown
# Summary of the method: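 Using Ni–NTA, transcription factors fused N-terminally to polyhistidine and DsRed were purified after expression in E. coli BL21-CodonPlus. These were incubated at 200 nM with a blocked, double-stranded custom Agilent array for 1 h at 25 °C in a buffer containing 50 µM zinc acetate, and the array was washed. The binding signal is per-feature fluorescence intensity (arbitrary units) on an Axon 4000B scanner.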
row,Sequence,binding signal
1,ACAATCTTCTCCAGTTATCCCCTCTCCGGATGCTGATCTGCGGAGTCACCTAGTGCAG,3940 fluorescence intensity (a.u.)
2,TGACAGGTAGAGGTCCATCAATTGGTCATTATGCTATTCTCGGAGTCACCTAGTGCAG,7800 fluorescence intensity (a.u.)
3,CCTACAATTAAGGACGAAATGACACGTGGAAATAGACGTGCGGAGTCACCTAGTGCAG,14700 fluorescence intensity (a.u.)
4,AAGCACGTGTGCACGGTACACGTGTCCCAGATGGAGTAGTCGGAGTCACCTAGTGCAG,5500 fluorescence intensity (a.u.)
5,TCCGTCAAATTCAGTCGGCAGGGTCACTGAGATATCGTCGCGGAGTCACCTAGTGCAG,3460 fluorescence intensity (a.u.)
6,GTCATTAGGAAAACGCAATAAGCTGAGTCAGATTAGCAAGCGGAGTCACCTAGTGCAG,7970 fluorescence intensity (a.u.)
7,GCACCTGGGACCGCGTGCGTGCGGGCGGGCGGGCGGGCGGCGGAGTCACCTAGTGCAG,6870 fluorescence intensity (a.u.)
8,AGGTAGGGTCGTGGGGAAGGAGAAAGACCTGACATGTGGGCGGAGTCACCTAGTGCAG,16400 fluorescence intensity (a.u.)
9,ACTACTAGTACTCGCAAATCACAATCCTTCACAAAACCGACGGAGTCACCTAGTGCAG,3310 fluorescence intensity (a.u.)
10,GCCCTTAATCAATTTGTATCAGAACAGCAATAGATGTCTACGGAGTCACCTAGTGCAG,26800 fluorescence intensity (a.u.)
11,CCCTGGGTGGTTTTGGAGGTGGTTTTGGTTGACGTGGCGCCGGAGTCACCTAGTGCAG,21400 fluorescence intensity (a.u.)
12,ATATGGCAAGGTTGGATCAGTCATTTCGGCATGGCCATTTCGGAGTCACCTAGTGCAG,3210 fluorescence intensity (a.u.)
13,CGGACCAAACACATCGAGCTCGACATCCACTTCGTCAGGGCGGAGTCACCTAGTGCAG,3570 fluorescence intensity (a.u.)
14,TGTTTTGACGGGCCCGGAATTGCTTTTGCTGCCTAGGCACCGGAGTCACCTAGTGCAG,3150 fluorescence intensity (a.u.)
15,CCAGAGCCAGAGTGAGCCACCACCAGAGGCGTGACCGAATCGGAGTCACCTAGTGCAG,4470 fluorescence intensity (a.u.)
16,AAACAGCGCGTGAACGTGGCACGCCTGAACCGCACGGAACCGGAGTCACCTAGTGCAG,4910 fluorescence intensity (a.u.)
17,CGCCGCCCTCGGAGAGTCGACGCCCGCGGCTGGCTCAGCGCGGAGTCACCTAGTGCAG,3410 fluorescence intensity (a.u.)
18,TTAGAAATGTCCTAGTCGATGATGTGTGTACATTCGTACACGGAGTCACCTAGTGCAG,5300 fluorescence intensity (a.u.)
19,GCCGCTGCCGTCGGGAGCTCAAGTTTGACTCGTGAGCTGGCGGAGTCACCTAGTGCAG,3450 fluorescence intensity (a.u.)
20,GACACATCCCCTCTAGGATCCTACGTGGCACTGATGTGGCCGGAGTCACCTAGTGCAG,34000 fluorescence intensity (a.u.)
21,CTCCTACTCATCATCATCGTCTTCTTCTTCTTGCCCAACTCGGAGTCACCTAGTGCAG,4050 fluorescence intensity (a.u.)
22,AATCCTGCTAGAATGACTCCTCTCGTATGATGTATACCTACGGAGTCACCTAGTGCAG,4240 fluorescence intensity (a.u.)
23,ACGAGATCCACTCGCACCAGCTCATCATTTGCTCCTCCACCGGAGTCACCTAGTGCAG,3720 fluorescence intensity (a.u.)

# Rewritten tab-delimited: part of the list above.
row	Sequence	binding signal
17	CGCCGCCCTCGGAGAGTCGACGCCCGCGGCTGGCTCAGCGCGGAGTCACCTAGTGCAG	3410 fluorescence intensity (a.u.)
18	TTAGAAATGTCCTAGTCGATGATGTGTGTACATTCGTACACGGAGTCACCTAGTGCAG	5300 fluorescence intensity (a.u.)
